According to ChEMBL document CHEMBL2034889, “The design and synthesis of novel, potent and orally bioavailable N-aryl piperazine-1-carboxamide CCR2 antagonists with very high hERG selectivity” (Bioorg Med Chem Lett, 2012):
pIC50: −log10 of the molar value.

Sequences of proteins named here, by UniProt entry; tags and fusion partners are left off. A change or cut given only in a name is not applied to a line headed by its entry.
UniProt Q12809: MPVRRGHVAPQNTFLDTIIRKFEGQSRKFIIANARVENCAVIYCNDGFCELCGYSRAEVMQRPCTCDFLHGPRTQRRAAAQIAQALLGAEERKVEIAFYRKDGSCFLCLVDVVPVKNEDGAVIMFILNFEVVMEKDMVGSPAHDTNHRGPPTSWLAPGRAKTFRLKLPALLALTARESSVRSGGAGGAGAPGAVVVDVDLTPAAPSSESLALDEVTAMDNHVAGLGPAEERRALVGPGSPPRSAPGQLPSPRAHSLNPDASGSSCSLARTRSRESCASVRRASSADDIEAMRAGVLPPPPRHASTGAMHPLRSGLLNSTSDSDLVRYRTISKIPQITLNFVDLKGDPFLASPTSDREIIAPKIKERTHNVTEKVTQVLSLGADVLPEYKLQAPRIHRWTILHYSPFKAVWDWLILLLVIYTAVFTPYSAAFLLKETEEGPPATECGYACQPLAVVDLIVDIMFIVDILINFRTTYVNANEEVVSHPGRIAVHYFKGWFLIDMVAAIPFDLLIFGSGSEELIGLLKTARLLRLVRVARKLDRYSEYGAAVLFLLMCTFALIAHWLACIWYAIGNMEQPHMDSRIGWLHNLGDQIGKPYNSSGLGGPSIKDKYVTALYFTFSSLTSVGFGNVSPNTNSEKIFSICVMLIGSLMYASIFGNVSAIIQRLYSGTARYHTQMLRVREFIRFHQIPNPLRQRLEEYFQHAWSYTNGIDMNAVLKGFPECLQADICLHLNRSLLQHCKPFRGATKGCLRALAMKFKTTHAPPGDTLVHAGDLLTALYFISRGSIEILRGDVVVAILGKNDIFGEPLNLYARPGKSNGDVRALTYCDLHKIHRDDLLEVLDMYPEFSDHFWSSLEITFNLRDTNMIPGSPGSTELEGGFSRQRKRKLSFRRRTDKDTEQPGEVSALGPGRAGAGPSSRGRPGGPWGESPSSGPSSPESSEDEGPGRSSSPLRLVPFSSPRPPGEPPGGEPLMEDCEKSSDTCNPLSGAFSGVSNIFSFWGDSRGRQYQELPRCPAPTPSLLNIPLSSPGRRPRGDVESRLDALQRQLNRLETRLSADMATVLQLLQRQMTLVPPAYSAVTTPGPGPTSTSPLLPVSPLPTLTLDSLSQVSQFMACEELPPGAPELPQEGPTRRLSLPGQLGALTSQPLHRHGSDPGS

Target: Voltage-gated inwardly rectifying potassium channel KCNH2 (Homo sapiens, UniProt Q12809)

Compound | pIC50
O=C(Nc1ccc(Cl)c(Cl)c1)N1CCN(C[C@@H]2CCCN(Cc3ccccc3)C2)CC1 | 6.25
O=C(Nc1ccc(Cl)c(Cl)c1)N1CCN(C[C@@H]2CCCN(CCc3ccccc3)C2)CC1 | > 6.52
